Source: article doi:10.1101/2020.10.21.349480
These are yes or no findings as the source states them, for the method shown. Some binding calls cover weakened binding; strength is not graded here. Sequences can lack the tags named with a protein.

The chains behind the UniProt entries cited, without tags or fusion partners. Where a name states a change or a piece, a line headed by the entry shows the natural chain unless it says otherwise. Residues count along the entry.
UniProt P02452: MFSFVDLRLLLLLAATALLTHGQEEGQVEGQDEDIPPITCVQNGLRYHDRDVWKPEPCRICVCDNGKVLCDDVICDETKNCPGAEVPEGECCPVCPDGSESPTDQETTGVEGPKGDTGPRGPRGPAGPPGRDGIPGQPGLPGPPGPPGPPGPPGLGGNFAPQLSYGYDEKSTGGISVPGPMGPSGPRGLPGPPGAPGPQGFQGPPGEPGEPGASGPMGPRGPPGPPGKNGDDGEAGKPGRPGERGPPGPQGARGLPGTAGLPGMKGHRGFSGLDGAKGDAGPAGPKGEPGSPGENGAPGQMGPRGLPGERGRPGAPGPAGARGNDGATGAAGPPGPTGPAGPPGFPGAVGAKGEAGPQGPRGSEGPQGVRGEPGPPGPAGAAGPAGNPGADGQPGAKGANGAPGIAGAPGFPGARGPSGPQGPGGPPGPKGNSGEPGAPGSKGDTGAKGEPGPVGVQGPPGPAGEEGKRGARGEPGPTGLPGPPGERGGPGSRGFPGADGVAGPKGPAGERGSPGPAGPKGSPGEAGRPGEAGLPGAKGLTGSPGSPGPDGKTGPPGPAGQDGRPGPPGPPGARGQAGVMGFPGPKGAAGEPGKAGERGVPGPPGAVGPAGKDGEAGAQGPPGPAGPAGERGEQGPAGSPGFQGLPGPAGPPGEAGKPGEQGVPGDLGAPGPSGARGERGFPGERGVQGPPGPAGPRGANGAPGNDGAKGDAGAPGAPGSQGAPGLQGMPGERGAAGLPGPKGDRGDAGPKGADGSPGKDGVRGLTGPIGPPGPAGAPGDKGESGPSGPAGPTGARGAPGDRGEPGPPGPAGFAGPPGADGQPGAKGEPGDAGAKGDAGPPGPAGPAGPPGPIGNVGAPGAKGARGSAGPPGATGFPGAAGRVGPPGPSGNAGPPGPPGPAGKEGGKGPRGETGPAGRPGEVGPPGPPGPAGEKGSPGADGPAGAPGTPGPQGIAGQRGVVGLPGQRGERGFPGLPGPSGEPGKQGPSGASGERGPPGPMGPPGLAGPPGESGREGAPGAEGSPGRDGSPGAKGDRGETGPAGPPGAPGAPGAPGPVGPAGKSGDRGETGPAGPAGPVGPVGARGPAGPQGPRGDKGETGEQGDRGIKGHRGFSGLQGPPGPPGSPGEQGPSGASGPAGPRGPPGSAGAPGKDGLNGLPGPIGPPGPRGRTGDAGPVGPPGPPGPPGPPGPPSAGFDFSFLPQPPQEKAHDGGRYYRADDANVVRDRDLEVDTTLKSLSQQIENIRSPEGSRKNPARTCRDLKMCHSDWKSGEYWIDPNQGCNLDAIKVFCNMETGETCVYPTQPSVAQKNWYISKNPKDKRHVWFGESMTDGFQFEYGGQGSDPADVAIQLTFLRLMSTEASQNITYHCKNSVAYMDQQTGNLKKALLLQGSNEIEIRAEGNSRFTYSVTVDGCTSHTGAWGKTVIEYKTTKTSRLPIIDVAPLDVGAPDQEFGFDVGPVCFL
UniProt P02461, residues 154-1221: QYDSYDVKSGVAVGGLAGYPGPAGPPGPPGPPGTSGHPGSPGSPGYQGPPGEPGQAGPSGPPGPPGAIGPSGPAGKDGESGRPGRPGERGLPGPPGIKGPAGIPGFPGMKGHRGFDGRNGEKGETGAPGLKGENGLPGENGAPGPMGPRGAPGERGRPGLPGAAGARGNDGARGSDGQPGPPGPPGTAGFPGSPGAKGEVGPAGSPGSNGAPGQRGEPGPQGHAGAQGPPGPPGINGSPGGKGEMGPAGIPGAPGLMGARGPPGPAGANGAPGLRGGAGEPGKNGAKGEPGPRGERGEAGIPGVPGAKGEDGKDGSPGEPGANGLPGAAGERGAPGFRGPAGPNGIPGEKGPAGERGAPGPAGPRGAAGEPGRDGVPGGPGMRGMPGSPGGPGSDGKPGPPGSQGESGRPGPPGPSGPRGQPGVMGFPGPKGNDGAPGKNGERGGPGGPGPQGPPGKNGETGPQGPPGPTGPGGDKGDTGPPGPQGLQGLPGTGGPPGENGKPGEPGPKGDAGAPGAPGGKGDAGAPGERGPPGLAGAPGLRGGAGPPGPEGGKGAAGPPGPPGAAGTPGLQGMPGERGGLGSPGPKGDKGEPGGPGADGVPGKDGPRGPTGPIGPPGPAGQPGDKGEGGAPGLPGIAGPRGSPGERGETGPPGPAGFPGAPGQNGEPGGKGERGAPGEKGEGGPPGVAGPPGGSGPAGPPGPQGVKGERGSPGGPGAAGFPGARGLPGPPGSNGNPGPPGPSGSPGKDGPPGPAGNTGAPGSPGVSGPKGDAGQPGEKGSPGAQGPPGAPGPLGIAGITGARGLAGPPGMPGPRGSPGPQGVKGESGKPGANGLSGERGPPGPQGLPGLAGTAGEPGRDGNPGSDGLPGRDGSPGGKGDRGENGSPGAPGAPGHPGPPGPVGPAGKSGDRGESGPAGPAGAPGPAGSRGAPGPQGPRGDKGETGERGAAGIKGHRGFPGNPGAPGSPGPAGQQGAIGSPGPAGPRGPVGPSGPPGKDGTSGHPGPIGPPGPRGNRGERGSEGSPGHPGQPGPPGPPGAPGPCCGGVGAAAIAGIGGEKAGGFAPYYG
UniProt P08121, residues 155-1219: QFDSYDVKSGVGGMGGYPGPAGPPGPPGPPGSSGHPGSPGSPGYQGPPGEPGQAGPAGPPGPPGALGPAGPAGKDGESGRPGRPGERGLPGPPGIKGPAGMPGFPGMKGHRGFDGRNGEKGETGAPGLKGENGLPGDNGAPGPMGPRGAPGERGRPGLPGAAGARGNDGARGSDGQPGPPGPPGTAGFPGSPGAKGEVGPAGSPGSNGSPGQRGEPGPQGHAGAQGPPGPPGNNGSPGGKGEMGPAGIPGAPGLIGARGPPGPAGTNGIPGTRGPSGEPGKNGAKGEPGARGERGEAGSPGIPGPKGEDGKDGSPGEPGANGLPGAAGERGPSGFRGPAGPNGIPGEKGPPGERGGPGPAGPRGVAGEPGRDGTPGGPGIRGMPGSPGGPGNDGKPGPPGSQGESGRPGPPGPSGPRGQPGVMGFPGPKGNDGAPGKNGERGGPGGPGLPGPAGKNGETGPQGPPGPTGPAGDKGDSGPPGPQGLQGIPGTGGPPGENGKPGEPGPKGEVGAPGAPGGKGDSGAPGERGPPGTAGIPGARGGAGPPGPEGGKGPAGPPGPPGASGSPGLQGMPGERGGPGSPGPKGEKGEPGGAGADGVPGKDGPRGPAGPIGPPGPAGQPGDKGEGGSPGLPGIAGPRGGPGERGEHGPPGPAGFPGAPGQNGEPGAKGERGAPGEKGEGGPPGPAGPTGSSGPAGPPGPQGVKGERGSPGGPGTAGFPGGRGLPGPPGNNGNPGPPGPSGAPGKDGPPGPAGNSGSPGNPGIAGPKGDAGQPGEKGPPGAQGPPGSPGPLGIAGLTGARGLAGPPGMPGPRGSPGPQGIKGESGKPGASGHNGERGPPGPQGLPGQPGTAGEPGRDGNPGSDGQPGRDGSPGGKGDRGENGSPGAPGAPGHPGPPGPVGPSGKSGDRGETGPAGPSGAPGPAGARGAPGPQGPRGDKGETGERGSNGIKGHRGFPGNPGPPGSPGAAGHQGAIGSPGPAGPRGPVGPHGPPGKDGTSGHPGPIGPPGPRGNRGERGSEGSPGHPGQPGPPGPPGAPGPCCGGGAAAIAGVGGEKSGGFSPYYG
UniProt P02454: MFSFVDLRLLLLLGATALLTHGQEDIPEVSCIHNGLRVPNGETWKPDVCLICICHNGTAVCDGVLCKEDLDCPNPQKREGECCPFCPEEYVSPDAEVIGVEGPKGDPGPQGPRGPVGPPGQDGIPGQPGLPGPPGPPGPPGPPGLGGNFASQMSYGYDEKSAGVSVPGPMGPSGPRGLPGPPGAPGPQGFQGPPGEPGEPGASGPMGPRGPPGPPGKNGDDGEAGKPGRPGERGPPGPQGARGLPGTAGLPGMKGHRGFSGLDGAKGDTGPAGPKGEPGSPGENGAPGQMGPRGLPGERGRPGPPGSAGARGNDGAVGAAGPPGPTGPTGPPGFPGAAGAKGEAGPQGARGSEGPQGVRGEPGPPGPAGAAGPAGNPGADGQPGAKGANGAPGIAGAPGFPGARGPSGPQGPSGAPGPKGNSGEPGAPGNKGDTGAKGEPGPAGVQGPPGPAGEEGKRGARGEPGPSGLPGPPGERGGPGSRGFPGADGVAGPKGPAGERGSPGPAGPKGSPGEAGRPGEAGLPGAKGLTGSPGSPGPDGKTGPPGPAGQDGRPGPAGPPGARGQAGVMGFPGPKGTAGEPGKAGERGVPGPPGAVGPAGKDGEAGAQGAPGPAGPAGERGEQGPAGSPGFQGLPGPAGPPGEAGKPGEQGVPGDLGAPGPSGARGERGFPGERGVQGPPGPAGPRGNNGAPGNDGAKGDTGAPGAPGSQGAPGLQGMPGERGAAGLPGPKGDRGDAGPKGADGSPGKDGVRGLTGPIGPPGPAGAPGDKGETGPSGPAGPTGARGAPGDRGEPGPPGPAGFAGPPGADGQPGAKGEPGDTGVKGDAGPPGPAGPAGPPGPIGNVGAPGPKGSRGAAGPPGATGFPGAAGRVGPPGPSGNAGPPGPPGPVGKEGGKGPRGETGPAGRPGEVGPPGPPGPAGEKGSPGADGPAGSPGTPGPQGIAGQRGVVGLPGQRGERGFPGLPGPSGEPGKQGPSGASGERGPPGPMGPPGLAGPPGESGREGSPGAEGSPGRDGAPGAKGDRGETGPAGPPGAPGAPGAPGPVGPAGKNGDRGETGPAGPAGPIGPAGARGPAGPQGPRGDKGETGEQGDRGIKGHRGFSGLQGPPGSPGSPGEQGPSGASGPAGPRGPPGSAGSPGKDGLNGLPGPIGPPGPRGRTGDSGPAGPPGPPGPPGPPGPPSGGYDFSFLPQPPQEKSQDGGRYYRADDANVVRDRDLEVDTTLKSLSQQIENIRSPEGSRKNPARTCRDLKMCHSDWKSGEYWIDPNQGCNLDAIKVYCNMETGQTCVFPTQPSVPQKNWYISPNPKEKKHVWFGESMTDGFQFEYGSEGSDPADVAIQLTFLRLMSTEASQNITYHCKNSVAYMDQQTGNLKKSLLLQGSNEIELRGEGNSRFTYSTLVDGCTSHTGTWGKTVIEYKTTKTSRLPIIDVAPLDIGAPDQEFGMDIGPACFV
UniProt P13941, residues 155-1218: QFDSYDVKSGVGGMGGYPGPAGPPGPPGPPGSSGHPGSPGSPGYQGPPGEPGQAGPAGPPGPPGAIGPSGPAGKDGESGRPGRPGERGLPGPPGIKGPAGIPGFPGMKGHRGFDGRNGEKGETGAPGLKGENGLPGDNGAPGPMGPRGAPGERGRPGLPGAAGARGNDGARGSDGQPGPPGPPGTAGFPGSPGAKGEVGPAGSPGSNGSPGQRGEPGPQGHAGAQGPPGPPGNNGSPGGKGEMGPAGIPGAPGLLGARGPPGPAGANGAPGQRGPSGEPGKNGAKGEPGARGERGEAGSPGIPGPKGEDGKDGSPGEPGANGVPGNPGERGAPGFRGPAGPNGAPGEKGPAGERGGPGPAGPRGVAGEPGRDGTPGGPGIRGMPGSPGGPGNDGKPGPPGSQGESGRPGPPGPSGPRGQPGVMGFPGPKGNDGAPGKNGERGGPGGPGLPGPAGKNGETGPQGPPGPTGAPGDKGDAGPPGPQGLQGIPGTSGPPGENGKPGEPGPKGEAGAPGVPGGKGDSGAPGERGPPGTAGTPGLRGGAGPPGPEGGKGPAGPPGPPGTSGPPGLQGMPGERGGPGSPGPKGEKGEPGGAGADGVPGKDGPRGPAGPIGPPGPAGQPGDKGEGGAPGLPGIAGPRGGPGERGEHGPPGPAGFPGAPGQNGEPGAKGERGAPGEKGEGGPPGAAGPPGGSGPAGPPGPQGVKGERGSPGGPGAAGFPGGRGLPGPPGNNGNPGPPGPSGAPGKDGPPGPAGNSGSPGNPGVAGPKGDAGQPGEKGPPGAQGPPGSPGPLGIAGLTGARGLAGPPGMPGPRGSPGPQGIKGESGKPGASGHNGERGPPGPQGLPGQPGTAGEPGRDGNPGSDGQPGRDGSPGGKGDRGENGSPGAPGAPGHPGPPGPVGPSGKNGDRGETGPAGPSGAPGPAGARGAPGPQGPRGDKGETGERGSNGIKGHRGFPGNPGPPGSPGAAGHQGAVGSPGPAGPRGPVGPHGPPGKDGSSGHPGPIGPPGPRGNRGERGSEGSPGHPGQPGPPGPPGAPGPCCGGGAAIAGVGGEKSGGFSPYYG

T1: NC410, LAIR-2 human IgG1 Fc fusion protein (human) (UniProt Q6ISS4)
T1 sequence: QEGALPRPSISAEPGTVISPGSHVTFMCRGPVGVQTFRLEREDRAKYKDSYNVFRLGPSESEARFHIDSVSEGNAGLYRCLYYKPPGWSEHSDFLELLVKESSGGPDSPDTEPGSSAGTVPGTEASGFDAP


What was measured:
[1] = molecular target: T1, NC410, LAIR-2 human IgG1 Fc fusion protein (human); assay: BLI
[2] = molecular target: human collagen I (human) (UniProt P02452+P08123); assay: time resolved fluorometry

Molecule | binding [1] | binding [2]
human collagen I (from UniProt P02452 162-1218; P08123 80-1119) | binds | –
human collagen III (from UniProt P02461 154-1221) | binds | –
mouse collagen I (from UniProt P11087 152-1207; Q01149 86-1125) | binds | –
mouse collagen III (from UniProt P08121 155-1219) | binds | –
rat collagen I (from UniProt P02454 152-1207; P02466 86-1125) | binds | –
rat collagen III (from UniProt P13941 155-1218) | binds | –
human LAIR-1 Fc fusion protein (Fc fusion, UniProt Q6GTX8 22-165, biotin (EZ-Link NHS-PEG4-Biotin)) QEEDLPRPSISAEPGTVIPLGSHVTFVCRGPVGVQTFRLERDSRSTYNDTEDVSQASPSESEARFRIDSVREGNAGLYRCIYYKPPKWSEQSDYLELLVKESSGGPDSPDTEPGSSAGPTQRPSDNSHNEHAPASQGLKAEHLY | – | binds
